Hit rate of the full screen: of about 1,100 compounds, about 420 (38%) were called active. No stated cut-off is given here; in the data, active means inhibition above about 29%; inactive means the rest. Only a part is listed here, and it is no random draw.
What follows are molecules tested against Orexin/Hypocretin receptor type 1 (Homo sapiens) (UniProt O43613) (assay: OX1R (HCRTR1) antagonists, confirmation, fluorescence, CHO/OX1R cells, Fluo-8 calcium, orexin A (AID 492963;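 further: 0% = agonist challenge alone and 100% = reference antagonist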)). Conditions: orexin A calcium Fluo-8 fluorescence, at 5 µM, active compounds read high.

Sequences of proteins named here, by UniProt entry; tags and fusion partners are left off.
UniProt O43613, whole entry, looked up: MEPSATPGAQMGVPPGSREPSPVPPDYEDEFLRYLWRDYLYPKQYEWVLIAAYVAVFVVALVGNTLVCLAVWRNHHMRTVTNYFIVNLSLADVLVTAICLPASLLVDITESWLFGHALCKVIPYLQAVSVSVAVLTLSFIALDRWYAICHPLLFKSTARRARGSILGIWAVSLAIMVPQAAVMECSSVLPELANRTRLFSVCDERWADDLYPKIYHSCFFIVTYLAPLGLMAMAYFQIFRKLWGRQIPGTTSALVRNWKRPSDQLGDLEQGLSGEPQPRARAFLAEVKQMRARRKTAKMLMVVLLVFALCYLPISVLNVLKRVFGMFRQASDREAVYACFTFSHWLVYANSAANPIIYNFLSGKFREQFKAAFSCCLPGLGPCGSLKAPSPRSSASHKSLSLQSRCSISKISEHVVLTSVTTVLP

Row | Structure (SMILES) | inhibition
1 | CC(C(=O)Nc1ccc(Cl)cc1Cl)N1CC=C(c2ccccc2)CC1 (stereo unspecified) | inactive: -25.8%

From PubChem BioAssay AID492963 (The Scripps Research Institute Molecular Screening Center, 2010)
